{
  "source": "patent US8431611B2",
  "about": "“Artemisinin derivatives” (Johns Hopkins University, priority 2006, dated 2013)",
  "test_system": "T. gondii tachyzoites",
  "test": "Replication inhibition assay",
  "format": "cell-based, Toxoplasma gondii",
  "conditions": "10 μg/ml added 2 hours after infection of HFF cells, 26 hours; FIG. 2",
  "method": "(§1) FIG. 2 illustrates the replication inhibition assay. T. gondii tachyzoites are allowed to infect HFF cells for 2 hours. Following this, compounds are added to the cells for a final concentration of 10 μg/ml and the infection is allowed to progress for 26 hours. Data are compiled from ten randomly selected fields wherein number of vacuoles and number of parasites within the vacuoles are enumerated. Control represents no drug added.\nas §1, with “assay (14).” for “assay.”",
  "note": "At least one compound was matched to its structure with a doubt left.",
  "data": [
    {"smiles": "CO[C@H]1O[C@@H]2O[C@@]3(C)CC[C@H]4[C@H](C)CC[C@@H]([C@H]1C)[C@@]24OO3", "note": "[Artemether, reference compound]", "values": [
      {"measurement": "inhibition of T. gondii replication", "result": "moderate inhibition"}
    ]}
  ]
}
